Measured values: patent US9102678B2, “Compounds and methods for inhibiting mitotic progression” (Millennium Pharmaceuticals, Inc., priority 2004, dated 2015)
Some results were stated once for a whole list of compounds, not compound by compound.

Sequences of proteins named here, by UniProt entry; tags and fusion partners are left off. A change or cut given only in a name is not applied to a line headed by its entry.
UniProt P97477: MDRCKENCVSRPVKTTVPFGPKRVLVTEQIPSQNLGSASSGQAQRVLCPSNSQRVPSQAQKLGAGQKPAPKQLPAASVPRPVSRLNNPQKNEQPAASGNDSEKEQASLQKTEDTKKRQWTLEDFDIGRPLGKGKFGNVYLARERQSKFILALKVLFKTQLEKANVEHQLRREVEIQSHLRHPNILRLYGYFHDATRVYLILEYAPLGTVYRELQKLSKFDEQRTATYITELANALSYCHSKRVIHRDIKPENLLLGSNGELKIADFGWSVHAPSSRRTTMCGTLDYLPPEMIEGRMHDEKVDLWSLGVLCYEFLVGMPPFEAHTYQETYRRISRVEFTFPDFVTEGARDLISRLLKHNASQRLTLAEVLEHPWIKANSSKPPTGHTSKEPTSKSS

Biological target: T1, recombinant murine Aurora A enzyme (Mus musculus, UniProt P97477)
T1 construct: hexahistidine (His6) (N); made in house; host or cells: insect cells, baculovirus (Bac-to-Bac, Invitrogen)
Assay: Aurora A DELFIA Kinase Assay
Type: biochemical
Conditions: 250 μM ATP, threshold less than or equal to 1.0 μM

| Compound | IC50 [nM] |
| --- | --- |
| NC1CN(C(=O)c2ccc(Nc3ncc4c(n3)-c3ccc(Cl)cc3C(c3ccccc3F)=NC4)cc2)C1 [Compound I-192, (3-Amino-azetidin-1-yl)-{4-[9-chloro-7-(2-fluoro-phenyl)-5H-benzo[c]pyrimido[4,5-e]azepin-2-ylamino]-phenyl}-methanone] | ≤ 1000 |
| COc1cccc(F)c1C1=NCc2cnc(Nc3ccc(C(=O)N4CC(C)NC(C)C4)cc3)nc2-c2ccc(Cl)cc21 (stereo not drawn) [Compound I-177, 9-Chloro-N-{4-[(3,5-dimethylpiperazin-1-yl)carbonyl]phenyl}-7-(2-fluoro-6-methoxyphenyl)-5H-pyrimido[5,4-d][2]benzazepin-2-amine] | ≤ 1000 |
| CN(C)C1CCN(C(=N)c2ccc(Nc3ncc4c(n3)-c3ccc(Cl)cc3C(c3c(F)cccc3F)=NC4)cc2)C1 (stereo not drawn) [Compound I-250, 9-chloro-7-(2,6-difluorophenyl)-N-{4-[[3-(dimethylamino)pyrrolidin-1-yl](imino)methyl]phenyl}-5H-pyrimido[5,4-d][2]benzazepin-2-amine] | ≤ 1000 |
| O=S(=O)(O)c1ccc(Nc2ncc3c(n2)-c2ccc(Cl)cc2C(c2ccccc2F)=NC3)cc1 [Compound I-67, 4-[9-Chloro-7-(2-fluoro-phenyl)-5H-benzo[c]pyrimido[4,5-e]azepin-2-ylamino]-benzenesulfonic acid] | ≤ 1000 |
| CN1CCN(CCCNC(=O)c2ccc(Nc3ncc4c(n3)-c3ccc(Cl)cc3C(c3ccccc3Cl)=NC4)cc2)CC1 [Compound I-20, 4-[9-Chloro-7-(2-chloro-phenyl)-5H-benzo[c]pyrimido[4,5-e]azepin-2-ylamino]-N-[3-(4-methyl-piperazin-1-yl)-propyl]-benzamide] | ≤ 1000 |
| COc1cccc(Nc2ncc3c(n2)-c2ccc(C#CCN)cc2C(c2c(F)cccc2F)=NC3)c1 [Compound I-276, 9-(3-aminoprop-1-yn-1-yl)-7-(2,6-difluorophenyl)-N-(3-methoxyphenyl)-5H-pyrimido[5,4-d][2]benzazepin-2-amine] | ≤ 1000 |
| COc1ccccc1C1=NCc2cnc(Nc3ccc(C(=O)N4CC(C)NC(C)C4)cc3)nc2-c2ccc(Cl)cc21 (stereo not drawn) [Compound I-330] | ≤ 1000 |
| COc1cccc(F)c1C1=NCc2cnc(Nc3cccc(C(=O)N(C)CCCN(C)C)c3)nc2-c2ccc(Cl)cc21 [Compound I-226, 3-{[9-chloro-7-(2-fluoro-6-methoxyphenyl)-5H-pyrimido[5,4-d][2]benzazepin-2-yl]amino}-N-[3-(dimethylamino)propyl]-N-methylbenzamide] | ≤ 1000 |
| CN(C)C1CCN(C(=N)NC(=O)c2ccc(Nc3ncc4c(n3)-c3ccc(Cl)cc3C(c3c(F)cccc3F)=NC4)cc2)C1 (stereo not drawn) [Compound I-237, 4-[9-Chloro-7-(2,6-difluoro-phenyl)-5H-benzo[c]pyrimido[4,5-e]azepin-2-ylamino]-N-[(3-dimethylamino-pyrrolidin-1-yl)-imino-methyl]-benzamide] | ≤ 1000 |
| O=C(CN1CCN(C(=O)c2ccc(Nc3ncc4c(n3)-c3ccc(Cl)cc3C(c3ccccc3F)=NC4)cc2)CC1)N1CCOCC1 [Compound I-165, 9-Chloro-7-(2-fluorophenyl)-N-(4-{[4-(2-morpholin-4-yl-2-oxoethyl)piperazin-1-yl]carbonyl}phenyl)-5H-pyrimido-[5,4-d][2]benzazepin-2-amine] | ≤ 1000 |
| COc1cccc(F)c1C1=NCc2cnc(Nc3ccc(C(=O)N4CCC(N(C)C)C4)cc3)nc2-c2ccc(Cl)cc21 (stereo not drawn) [Compound I-178, 9-Chloro-N-(4-{[3-(dimethylamino)pyrrolidin-1-yl]carbonyl}phenyl)-7-(2-fluoro-6-methoxyphenyl)-5H-pyrimido[5,4-d][2]benzazepin-2-amine] | ≤ 1000 |
| CNC1CCN(C(=O)c2cc(Nc3ncc4c(n3)-c3ccc(Cl)cc3C(c3c(F)cccc3F)=NC4)ccc2Cl)CC1 [Compound I-282, 9-chloro-N-(4-chloro-3-{[4-(methylamino)piperidin-1-yl]carbonyl}phenyl)-7-(2,6-difluorophenyl)-5H-pyrimido[5,4-d][2]benzazepin-2-amine] | ≤ 1000 |
